In PubChem BioAssay AID2685 (National Center for Advancing Translational Sciences (NCATS), 2010) one finds cell number change and AC50 data, which are given here for 61 compounds.

The list shows a part of the results. The main result of the screen is listed elsewhere. These columns were measured beside it and carry no call. The list favours compounds with an active or inconclusive main result. Words in brackets tell the shape of the fitted curve; partial curves, single points and poor fits give uncertain potencies.

The test in a line: qHTS Assay for Lipid Storage Modulators in Drosophila S3 Cells.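 For cell number change: cells counted by Cell Tracker Red CMTPX staining in the red channel.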 Conditions: BODIPY lipid droplet fluorescence, 18-24 h; for cell number change: measured here: cell count max response, cells fed with added oleic acid. The gist of the method:
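Laser-scanning cytometry quantifies lipid droplet accumulation (500–530 nm total intensity; droplet/cell object ratio) in oleic acid-fed (400 uM added) Drosophila S3 cells treated with a concentration series. 20 uM Triacsin C defined 100% inhibition.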
In general terms: Quantitative high-throughput screening tests each substance at several concentrations.

Where [1] appears, read: measured here: lipid fluorescence (Fed channel) AC50, cells fed with added oleic acid.
[2] abbreviates: measured here: cell number channel AC50, cells fed with added oleic acid.

One may read the AC50 as the midpoint of the concentration-response curve, whichever way the signal moves. Higher therefore signals activity only at high concentration. Take `Cc1[nH]c2ccc(F)cc2c(=O)c1SC(F)(F)C(F)F`: the cell number change is -21.4%. For the same compound, the AC50 under setting [1] was 1.84 µM [rising, partial curve].
Consider `COc1cc2c(cc1NC(=O)C(C)NCc1ccccc1)oc1ccccc12` (stereo not drawn), for which the cell number change is -4.59%. Further, the AC50 under setting [1] was 23.1 µM [falling, single point].
For `Cc1csc(NC(=O)C2CCCCC2)n1`, the cell number change came to 15%. Besides, under setting [1], the AC50 is 29.1 µM [rising, single point].
As to `Cc1csc(NC(=O)c2c(O)c3cccc4c3n(c2=O)CCC4)n1`, the cell number change was found to be 0.407%. Besides, the AC50 under setting [1] is 0.291 µM [rising, full curve, poor fit].
As for `CCCc1c(C(=O)N/N=C/c2ccc(OC)c(OCc3ccccc3)c2)nnn1-c1nonc1N`, the cell number change was determined as 68.3%. The AC50 under setting [2] is 29.1 µM [rising, single point]. Also, the AC50 under setting [1] was 29.1 µM [falling, single point].
As to `Cc1ccc(Cl)cc1NC(=O)Nc1c(C)n(C)n(-c2ccccc2)c1=O`, the AC50 under setting [1] is 29.1 µM [falling, single point].
In the case of `O=C(O)CSCC(=O)Nc1ccc(C(=O)O)cc1`, the cell number change amounted to 7.23%. Besides, the AC50 under setting [1] is 23.1 µM [falling, single point].
In the case of `COc1ccccc1C(=O)COC(=O)CNS(=O)(=O)c1ccc(C)cc1`, the cell number change was found to be 24.9%.
Regarding `CN1CCN(S(=O)(=O)c2cccc(C(=O)N(Cc3nnc(-c4ccc(Cl)cc4)o3)C3CC3)c2)CC1`, the cell number change was found to be 54.2%. The AC50 under setting [2] is 14.6 µM [rising, partial curve].
For the compound `COc1ccc(C(=O)Nc2ccc(Cl)cc2C(=O)NCc2ccco2)cc1OC`, the cell number change is -27.8%. The AC50 under setting [1] was 2.31 µM [rising, single point].
With `CN(C)c1ccc(/C=C/C(=O)c2cccc(Br)c2)cc1`, the cell number change worked out at 25.2%. Besides, the AC50 under setting [1] is 29.1 µM [falling, single point].
In the case of `O=C(NCc1ccccn1)c1ccccc1-c1ccccc1`, the cell number change was found to be 14.6%. Moreover, the AC50 under setting [1] was 6.51 µM [rising, single point].
Turning to `COC(=O)c1ccc(COc2ccc(F)cc2)o1`, the cell number change was -15.6%. The AC50 under setting [1] was 10.3 µM [falling, partial curve].
`CCOC(=O)c1cc(-c2ccccc2)sc1NC(=O)C(C)OC(=O)c1ccncc1` (stereo not drawn): the cell number change amounted to 16.8%. Besides, the AC50 under setting [1] is 4.11 µM [rising, partial curve, poor fit].
Regarding `COc1cc(NC(=O)COc2ccccc2)ccc1NC(=O)c1ccco1`, the cell number change was -9.4%.
For the compound `COc1ccc(N/C=C\C(=O)c2ccc3c(c2)OCO3)cc1`, the cell number change worked out at 46.9%. In addition, under setting [2], the AC50 was 0.731 µM [rising, full curve, poor fit].
In the case of `CCc1ccccc1N(CC(=O)NCC1CCCO1)C(=O)CCC(=O)Nc1nccs1` (stereo not drawn), the cell number change worked out at 20.6%.
On the same count and under the same terms, in the case of `CCN(CC)CCn1c(=N)n(CC(=O)c2ccc(C)cc2)c2ccccc21` it was -14.7%.
In the case of `O=C(NCCCN1CCC(Cc2ccccc2)CC1)C1CCC(=O)N1C1CCCC1` (stereo not drawn), the cell number change was 19.3%. Further, the concentration at half-maximal activity (AC50) under setting [1] is 0.0517 µM [falling, full curve, poor fit].
With `CC(C)C(NC(=O)c1ccccc1)C(=O)N1CCN(C/C=C/c2ccccc2)CC1` (stereo not drawn), the cell number change is -19.1%. The AC50 under setting [1] was 29.1 µM [falling, single point].
On to `O=C(CNC(=O)C12CC3CC(CC(C3)C1)C2)OCc1ccc(F)cc1Cl`, for which the cell number change is -4.76%. Moreover, the AC50 under setting [1] is 0.13 µM [falling, full curve, poor fit].
In the case of `CCOC(=O)CC(=O)Nc1ccc(C)cc1`, the cell number change was found to be 3.94%. Besides, the AC50 under setting [1] was 14.6 µM [rising, single point].
As to `COc1cccc(OCCn2c(C)c(/C=N/n3cnnc3)c3ccccc32)c1`, the cell number change is -51.6%. Besides, the AC50 under setting [2] is 9.2 µM [falling, partial curve, poor fit]. Besides, the concentration at half-maximal activity (AC50) under setting [1] was 7.31 µM [falling, partial curve].
For `COc1ccccc1NS(=O)(=O)c1cccc(C(=O)NCC(c2ccco2)N(C)C)c1` (stereo not drawn), the cell number change was found to be 24.2%.
On to `CC(=O)N1C(O)CC(C)N1c1ccccc1` (stereo not drawn), for which the cell number change was -66.7%. In addition, the AC50 under setting [2] was 0.58 µM [falling, full curve].
Consider `CCc1ccc(NC(=O)[C@H](C)NC(=O)C2CCN(C(=O)[C@@H](N)Cc3ccccc3)CC2)cc1`, for which the cell number change was -4.31%. Also, the AC50 under setting [1] was 0.58 µM [falling, single point].
In the case of `O=C1N=c2ccccc2=C1c1c(O)n(-c2cccc(F)c2)[nH]c1=O`, the AC50 under setting [2] was 6.51 µM [rising, single point].
For `N#C/C(=C/c1ccc(O)c(O)c1)C(=O)NCc1ccc(Cl)cc1`, the cell number change was -13.3%. Under setting [1], the AC50 was 29.1 µM [falling, single point].
Take `O=C(Nc1ccc(Cl)cc1)C1CCN(C(=O)c2ccco2)CC1`: the cell number change amounted to 13.9%.
As for `COc1coc(C(O)C[N+](=O)[O-])cc1=O` (stereo not drawn), the cell number change stood at 2.63%. Further, under setting [1], the AC50 was 0.82 µM [falling, full curve, poor fit].
For the compound `O=S(=O)(c1ccccc1F)N1CCN(c2nc(-c3cccnc3)nc3ccccc23)CC1`, the cell number change was 14.1%. In addition, under setting [1], the AC50 was 6.51 µM [falling, single point].
For the compound `Cc1cc(NC(=O)COC(=O)C2CCN(S(=O)(=O)c3cccc(Cl)c3Cl)CC2)no1`, the cell number change is -20.1%. Moreover, under setting [2], the AC50 was 4.11 µM [falling, full curve, poor fit]. Moreover, the half-maximal activity concentration (AC50) under setting [1] was 23.1 µM [falling, partial curve].
For `O=C(NCCc1nnc2ccc(NCCCN3CCOCC3)nn12)c1ccccc1F`, the cell number change was -14.1%. In addition, the AC50 under setting [2] was 4.11 µM [falling, partial curve].
For the compound `CC(C)C(=O)N1CCN(c2ccc([N+](=O)[O-])cc2Cl)CC1`, the cell number change amounted to 16.1%.
`COc1ccccc1C(c1nnnn1C(C)(C)C)N1CCCCCC1` (stereo not drawn): the cell number change is -5.51%. Besides, the AC50 under setting [1] was 5.8 µM [rising, single point].
Consider `CC1CCCN(C(C(=O)Nc2ccc3c(c2)OCO3)c2ccccc2)C1` (stereo not drawn), for which the cell number change is 10.3%. In addition, the AC50 under setting [1] is 2.06 µM [rising, single point].
As to `CCNC(=O)CCC(=O)Nc1cc(Cl)ccc1C`, the cell number change was found to be 5.09%. Besides, the AC50 under setting [1] was 2.59 µM [rising, single point].
On to `CCCCCCSc1cccc(-c2nc3ccc(C)cn3c2NCc2ccccc2)c1`, for which the cell number change came to 17.6%. Further, the AC50 under setting [1] was 0.146 µM [falling, partial curve, poor fit].
For `Cc1cccc(NC(=O)CC(C)S(=O)(=O)c2ccc3c(c2)NC(=O)CO3)c1C` (stereo not drawn), the cell number change is -9.7%. Also, the AC50 under setting [1] was 3.66 µM [falling, single point].
Turning to `O=C(CSc1nc2c(c(=O)n1-c1ccc(Cl)cc1)SCC2)Nc1ccc2c(c1)OCCO2`, under setting [2], the AC50 is 0.731 µM [rising, single point].
Turning to `CCCCn1c(-c2ccncc2)nc2c1c(=O)[nH]c(=O)n2CC(C)C`, the cell number change is -7.43%. For the same compound, the AC50 under setting [1] was 1.64 µM [rising, partial curve].
Consider `CCCCNC(=O)N(C)c1nncnc1C(=O)NC`, for which the cell number change was -21.1%. In addition, the AC50 under setting [1] is 0.206 µM [falling, full curve].
For the compound `CC1CCCN(c2nc(NCc3ccco3)nc(N)c2[N+](=O)[O-])C1` (stereo not drawn), the cell number change was -33.3%. In addition, the AC50 under setting [2] is 32.6 µM [falling, single point].
`Cc1ccc(C)c(S(=O)(=O)NC(CCC(N)=O)C(=O)O)c1` (stereo not drawn): the cell number change was 4.8%. For the same compound, the AC50 under setting [1] was 0.116 µM [falling, full curve].
In the case of `Cc1cc(C)c(OCCCCCn2ccnc2)c(C)c1`, the cell number change was -6.67%. For the same compound, under setting [1], the AC50 is 20.6 µM [falling, single point].
For `COc1cc(/C=C2\SC(=O)N(CC(=O)Nc3ccc(C)cc3)C2=O)cc(Cl)c1OCC(=O)O`, the cell number change stood at 2.93%. Further, the AC50 under setting [1] is 29.1 µM [rising, single point].
With `CCc1ccccc1NC(=O)CSC1=C(C#N)C(c2ccc3c(c2)OCO3)C2=C(CCCC2=O)N1` (stereo not drawn), the cell number change was -2.21%. In addition, under setting [1], the AC50 is 0.164 µM [rising, full curve, poor fit].
For `CC1(c2ccc([N+](=O)[O-])cc2)NC(=O)N(CC(=O)Nc2ccc(N3CCCCC3)cc2)C1=O` (stereo not drawn), the cell number change was 36.5%. Besides, the AC50 under setting [2] is 16.4 µM [rising, single point].
In the case of `COc1ccc(C(=O)/C=C/c2ccc(-c3ccccc3)cc2)cc1CSCC(=O)O`, the cell number change was found to be 42.7%. Further, the half-maximal activity concentration (AC50) under setting [2] is 13 µM [rising, partial curve, poor fit].
For `c1ccc(Cn2nc(-c3ccccc3)nc2-c2ccccc2)cc1`, the cell number change turned out to be 34.6%. Under setting [2], the AC50 was 4.61 µM [rising, partial curve]. For the same compound, under setting [1], the AC50 is 9.2 µM [rising, partial curve].
In the case of `CC1CCN(S(=O)(=O)c2ccc(NC(=O)c3ccccc3F)cc2)CC1`, the cell number change was -17.5%. Further, under setting [2], the AC50 is 0.13 µM [falling, full curve, poor fit].
Turning to `CCc1ccc2oc(=O)cc(CN3CCN(CCO)CC3)c2c1`, the cell number change was -89.1%. The AC50 under setting [2] was 18.4 µM [falling, partial curve]. Further, under setting [1], the concentration at half-maximal activity (AC50) is 29.1 µM [falling, single point].
`CCN(CC)C(=O)c1sc2nc(N3CCOCC3)c3c(c2c1N)CCCC3`: the cell number change was found to be 13.7%. Besides, the half-maximal activity concentration (AC50) under setting [2] was 0.259 µM [rising, full curve, poor fit]. Besides, the AC50 under setting [1] was 0.164 µM [rising, full curve].
Regarding `CC(=O)Nc1cccc(OCC(=O)/C=C2\N(C)c3ccccc3C2(C)C)c1`, the cell number change was -14.4%. The AC50 under setting [1] is 0.651 µM [falling, single point].
`O=C(COc1ccc2ccccc2c1)NN1C(=O)c2ccccc2C1=O`: the cell number change is -36.9%. The AC50 under setting [2] was 1.16 µM [falling, full curve, poor fit].
Regarding `O=C1OC2(CCCCC2)OC(=O)C1=CNc1nccs1`, the cell number change was -11.6%. Also, the concentration at half-maximal activity (AC50) under setting [1] is 2.31 µM [falling, full curve, poor fit].
For the compound `Oc1cccc(/C=N/N2CCCCC2)c1O`, the cell number change is 52.5%. In addition, the AC50 under setting [2] was 29.1 µM [rising, single point]. Also, the AC50 under setting [1] was 29.1 µM [rising, single point].
Turning to `CCC1(c2ccccc2)NC(=O)N(CC(=O)N(C)CC(=O)Nc2cccc(OC)c2)C1=O` (stereo not drawn), the cell number change was determined as 1.8%. For the same compound, under setting [1], the AC50 is 20.6 µM [falling, partial curve, poor fit].
For the compound `CCN(CC)C(=O)Oc1ccc2oc(=O)cc(-c3cc4cccc(OC)c4o3)c2c1`, the cell number change is -4.89%.
Take `CCCC(=O)NC(=S)Nc1ccc(Cl)cn1`: the cell number change worked out at 0.277%. The AC50 under setting [1] was 16.4 µM [falling, single point].
With `CCN(C(=O)CN1CCN(c2ccc(OC)cc2)CC1)c1c(N)n(Cc2ccccc2)c(=O)[nH]c1=O`, the cell number change is 7.14%. The AC50 under setting [1] was 0.00461 µM [falling, full curve, poor fit].
